From PMC11952966 (2025)

Tested on: HM10.2M1 (DNA, aptamer) GGGACGACAGGGATTCGGTTCGTGTCTAACAGTGCCTCGTACGTCGTCCC
Test: ITC

- KD: 17.8 µM
Structure (SMILES): CN1CC[C@]23c4c5ccc(O)c4O[C@H]2[C@@H](O)C=C[C@H]3[C@H]1C5
